Measurements as given in paper PMC8753592, “Long-acting capsid inhibitor protects macaques from repeat SHIV challenges” (Nature, 2021).
Where “and” joins values, the source holds several entries; their conditions need not be identical. Equal values may be shown once. Further values from the same series stand in other lists.

Test: Plasma GS-CA1 pharmacokinetics in the repeat SHIV challenge study
Format: in vivo, rhesus macaques of Indian origin
Details: individual animals
Protocol: For the challenge study, 24 outbred rhesus macaques of Indian origin were assigned to the three study groups with even sex and weight distributions. All animals were housed at Alpha Genesis (Yemassee, SC), and all procedures were conducted in compliance with all relevant local, state and federal regulations and were approved by the Alpha Genesis IACUC. […] The injection sites were monitored daily by veterinary staff for 3 days. Beginning in week 1, animals in all three groups were challenged by the intrarectal route with 1 ml of RPMI containing the specified dilution of a 3.62 × 10^3 TCID50 SHIV-SF162P3 stock. At each respective time point, the challenges were performed on the same day, using the same virus stock and inoculation method across the three groups. Whole blood was collected and processed into plasma and PBMCs as necessary to assess routine haematology, clinical chemistry, viral load and serology as well as for bioanalysis of drug levels. The animals were considered to be protected if they remained SHIV negative by plasma PCR assay and seronegative by enzyme immunoassay throughout the 15-week challenge phase and the 9-week follow-up.
Rhesus plasma samples were stored frozen at −80 °C.

For `CC(C)(C#Cc1ccc(-c2ccc(Cl)c3c(NS(=O)(=O)C4CC4)nn(CC(F)F)c23)c([C@H](Cc2cc(F)cc(F)c2)NC(=O)Cn2nc(C(F)F)c3c2C(F)(F)[C@@H]2C[C@H]32)n1)S(C)(=O)=O` [GS-CA1], the “Plasma GS-CA1” value (150 mg/kg single s.c., Week 1) was 682.28 nM and 607.28 nM and 3112.4 nM and 2515.88 nM and 761.71 nM and 881.7 nM and 687.72 nM, the “Plasma GS-CA1” value (150 mg/kg single s.c., Week 2) was 785.09 nM and 1097.4 nM and 2107.99 nM and 2027.37 nM and 1058.77 nM and 1219.47 nM and 772.74 nM and the “Plasma GS-CA1” value (150 mg/kg single s.c., Week 3) was 268.8 nM and 333.73 nM and 751.15 nM and 1370.65 nM and 334.48 nM and 208.6 nM and 196.6 nM. For the same compound, the “Plasma GS-CA1” value (150 mg/kg single s.c., Week 4) was 236.71 nM and 181.28 nM and 538.14 nM and 447.86 nM and 225.23 nM and 165.1 nM and 67.54 nM, the “Plasma GS-CA1” value (150 mg/kg single s.c., Week 5) was 86.54 nM and 202.79 nM and 333.46 nM and 449.04 nM and 141.28 nM and 113.5 nM and 95.4 nM and the “Plasma GS-CA1” value (150 mg/kg single s.c., Week 6) was 84.2 nM and 202.04 nM and 164.24 nM and 313.35 nM and 81.89 nM and 78.22 nM and 94.45 nM. The “Plasma GS-CA1” value (150 mg/kg single s.c., Week 7) was 58.28 nM and 136.23 nM and 139.14 nM and 249.92 nM and 68.8 nM and 45.78 nM and 64.92 nM, the “Plasma GS-CA1” value (150 mg/kg single s.c., Week 8) was 152.23 nM and 170.61 nM and 117.65 nM and 160.15 nM and 80.45 nM and 55.63 nM and 81.64 nM and the “Plasma GS-CA1” value (150 mg/kg single s.c., Week 9) was 79.54 nM and 80.39 nM and 134.53 nM and 64.84 nM and 24.54 nM and 26.69 nM. The “Plasma GS-CA1” value (150 mg/kg single s.c., Week 10) was 94.96 nM and 71.29 nM and 143.77 nM and 40.65 nM and 34.92 nM and 30.22 nM, the “Plasma GS-CA1” value (150 mg/kg single s.c., Week 11) was 53.1 nM and 51.13 nM and 71.46 nM and 23.98 nM and 12.35 nM and 18.52 nM and the “Plasma GS-CA1” value (150 mg/kg single s.c., Week 12) was 60.15 nM and 56 nM and 122.09 nM and 35.07 nM and 15.87 nM and 20.76 nM. The “Plasma GS-CA1” value (150 mg/kg single s.c., Week 13) was 69.19 nM and 42.95 nM and 48.2 nM and 62.92 nM and 42.14 nM and 9.51 nM and 14.42 nM, the “Plasma GS-CA1” value (150 mg/kg single s.c., Week 14) was 37.18 nM and 42.14 nM and 41.88 nM and 89.43 nM and 23.2 nM and 7 nM and 12.98 nM and the “Plasma GS-CA1” value (150 mg/kg single s.c., Week 15) was 37.73 nM and 25.05 nM and 38.57 nM and 44.35 nM and 22.39 nM and 4.16 nM and 9.5 nM. The “Plasma GS-CA1” value (150 mg/kg single s.c., Week 16) was 17.69 nM and 12.49 nM and 11.32 nM and 27.66 nM and 12.82 nM and 1.61 nM and 6.13 nM, the “Plasma GS-CA1” value (150 mg/kg single s.c., Week 17) was 20.95 nM and 14.29 nM and 11.67 nM and 20.8 nM and 13.83 nM and 1.22 nM and 5.08 nM and the “Plasma GS-CA1” value (150 mg/kg single s.c., Week 18) was 21.96 nM and 14.77 nM and 17.45 nM and 26.6 nM and 9.89 nM and 1.7 nM and 4.55 nM. The “Plasma GS-CA1” value (150 mg/kg single s.c., Week 19) was 31.14 nM and 16.18 nM and 26.67 nM and 23.66 nM and 14.78 nM and 2.45 nM and 4.87 nM, the “Plasma GS-CA1” value (150 mg/kg single s.c., Week 20) was 23.39 nM and 12.31 nM and 15.93 nM and 26.89 nM and 11.3 nM and 1.35 nM and 3.73 nM and the “Plasma GS-CA1” value (150 mg/kg single s.c., Week 21) was 6.46 nM and 2.59 nM and 3.91 nM and 7.83 nM and 3.15 nM and 1 nM. For the same compound, the “Plasma GS-CA1” value (150 mg/kg single s.c., Week 22) was 6.86 nM and 2.53 nM and 2 nM and 5.84 nM and 1.85 nM and 1 nM, the “Plasma GS-CA1” value (150 mg/kg single s.c., Week 23) was 3.4 nM and 1.2 nM and 1.06 nM and 3.85 nM and 1.48 nM and 1 nM and the “Plasma GS-CA1” value (150 mg/kg single s.c., Week 24) was 4.61 nM and 1.83 nM and 2.28 nM and 3.82 nM and 2.11 nM and 1 nM. For the same compound, the “Plasma GS-CA1” value (300 mg/kg single s.c., Week 1) was 6745.1 nM and 5527.81 nM and 3173.56 nM and 2250.56 nM and 1571.81 nM and 7818.17 nM and 2215.11 nM and 1943.85 nM, the “Plasma GS-CA1” value (300 mg/kg single s.c., Week 2) was 5020.82 nM and 1944.23 nM and 2465.66 nM and 1332.35 nM and 2066.12 nM and 3982.53 nM and 1948.63 nM and 1830.01 nM and the “Plasma GS-CA1” value (300 mg/kg single s.c., Week 3) was 1253.58 nM and 941.93 nM and 1003.46 nM and 894.45 nM and 508.47 nM and 1653.88 nM and 632.49 nM and 741.55 nM. The “Plasma GS-CA1” value (300 mg/kg single s.c., Week 4) was 743.3 nM and 863.19 nM and 663.58 nM and 529.86 nM and 358.71 nM and 724.82 nM and 416.16 nM and 362.21 nM, the “Plasma GS-CA1” value (300 mg/kg single s.c., Week 5) was 556.02 nM and 402.12 nM and 486.51 nM and 395.27 nM and 265.76 nM and 522.82 nM and 267.83 nM and 377.26 nM and the “Plasma GS-CA1” value (300 mg/kg single s.c., Week 6) was 395.92 nM and 369.69 nM and 282.5 nM and 382.44 nM and 161.43 nM and 241.65 nM and 272.87 nM and 350.17 nM. The “Plasma GS-CA1” value (300 mg/kg single s.c., Week 7) was 342.71 nM and 179.75 nM and 260.83 nM and 339.37 nM and 180.41 nM and 131.88 nM and 157.56 nM and 306.88 nM, the “Plasma GS-CA1” value (300 mg/kg single s.c., Week 8) was 287.02 nM and 209.19 nM and 239.58 nM and 319.17 nM and 140.45 nM and 378.49 nM and 155.27 nM and 225.76 nM and the “Plasma GS-CA1” value (300 mg/kg single s.c., Week 9) was 146.99 nM and 126.8 nM and 131.46 nM and 82.73 nM and 87.54 nM and 177.38 nM and 103.79 nM and 122.13 nM. The “Plasma GS-CA1” value (300 mg/kg single s.c., Week 10) was 131 nM and 72.85 nM and 69.86 nM and 54.53 nM and 98.13 nM and 116.65 nM and 106.49 nM and 114.46 nM, the “Plasma GS-CA1” value (300 mg/kg single s.c., Week 11) was 96.21 nM and 31.54 nM and 50.2 nM and 50.03 nM and 60.16 nM and 93.91 nM and 52.24 nM and 72.29 nM and the “Plasma GS-CA1” value (300 mg/kg single s.c., Week 12) was 52.67 nM and 93.47 nM and 85.26 nM and 65.93 nM and 84.23 nM and 74.51 nM and 101.46 nM. The “Plasma GS-CA1” value (300 mg/kg single s.c., Week 13) was 66.2 nM and 32.01 nM and 73.76 nM and 74.07 nM and 43.01 nM and 66.16 nM and 46.75 nM and 76.93 nM, the “Plasma GS-CA1” value (300 mg/kg single s.c., Week 14) was 62.7 nM and 39.51 nM and 82.73 nM and 93.72 nM and 44.99 nM and 84.64 nM and 41.4 nM and 86.17 nM and the “Plasma GS-CA1” value (300 mg/kg single s.c., Week 15) was 31.84 nM and 47.7 nM and 47.41 nM and 46.82 nM and 46.22 nM and 29.22 nM and 49.88 nM. For the same compound, the “Plasma GS-CA1” value (300 mg/kg single s.c., Week 16) was 26.06 nM and 21.9 nM and 27.7 nM and 23.64 nM and 20.26 nM and 34.03 nM and 14.71 nM and 29.78 nM, the “Plasma GS-CA1” value (300 mg/kg single s.c., Week 17) was 22.7 nM and 16.57 nM and 27.76 nM and 26.06 nM and 20.51 nM and 24.33 nM and 12.8 nM and 38.1 nM and the “Plasma GS-CA1” value (300 mg/kg single s.c., Week 18) was 33.14 nM and 13.56 nM and 30.17 nM and 25.35 nM and 35.49 nM and 27.53 nM and 17.91 nM and 47.6 nM. The “Plasma GS-CA1” value (300 mg/kg single s.c., Week 19) was 41.41 nM and 14.88 nM and 69.82 nM and 46.95 nM and 28.95 nM and 44.98 nM and 17.38 nM and 40.91 nM, the “Plasma GS-CA1” value (300 mg/kg single s.c., Week 20) was 25.1 nM and 13.16 nM and 46.61 nM and 34.18 nM and 32.72 nM and 41.86 nM and 12.28 nM and 43.8 nM and the “Plasma GS-CA1” value (300 mg/kg single s.c., Week 21) was 13.1 nM and 4.74 nM and 11.2 nM and 9.27 nM and 9.56 nM and 8.58 nM and 3.77 nM and 14.4 nM. For the same compound, the “Plasma GS-CA1” value (300 mg/kg single s.c., Week 22) was 9.23 nM and 3.77 nM and 10.4 nM and 6.6 nM and 9.38 nM and 8.89 nM and 3.44 nM and 9.91 nM, the “Plasma GS-CA1” value (300 mg/kg single s.c., Week 23) was 7.16 nM and 2.69 nM and 7.58 nM and 5.41 nM and 6.2 nM and 5.6 nM and 1.57 nM and 9.56 nM and the “Plasma GS-CA1” value (300 mg/kg single s.c., Week 24) was 6.55 nM and 2.72 nM and 10.3 nM and 5.77 nM and 6.9 nM and 7.12 nM and 1.32 nM and 10.7 nM.
